From the supplement of paper PMC10849652
The other results are listed elsewhere or left out.

Amino acid sequences for entries named in this document (tags omitted). A change or cut given only in a name is not applied to a line headed by its entry.
UniProt Q9UK39: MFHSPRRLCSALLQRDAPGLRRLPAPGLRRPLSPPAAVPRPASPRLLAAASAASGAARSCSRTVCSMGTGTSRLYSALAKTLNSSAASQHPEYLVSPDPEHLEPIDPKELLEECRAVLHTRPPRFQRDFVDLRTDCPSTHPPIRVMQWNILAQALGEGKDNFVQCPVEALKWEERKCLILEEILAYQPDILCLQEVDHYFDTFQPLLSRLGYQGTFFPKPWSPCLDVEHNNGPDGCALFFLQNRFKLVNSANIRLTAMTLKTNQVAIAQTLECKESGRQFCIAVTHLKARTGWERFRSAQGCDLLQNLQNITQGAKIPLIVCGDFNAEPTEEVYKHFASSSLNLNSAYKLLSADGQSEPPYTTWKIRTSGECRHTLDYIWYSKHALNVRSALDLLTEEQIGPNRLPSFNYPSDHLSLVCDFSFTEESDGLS
UniProt Q96RS6: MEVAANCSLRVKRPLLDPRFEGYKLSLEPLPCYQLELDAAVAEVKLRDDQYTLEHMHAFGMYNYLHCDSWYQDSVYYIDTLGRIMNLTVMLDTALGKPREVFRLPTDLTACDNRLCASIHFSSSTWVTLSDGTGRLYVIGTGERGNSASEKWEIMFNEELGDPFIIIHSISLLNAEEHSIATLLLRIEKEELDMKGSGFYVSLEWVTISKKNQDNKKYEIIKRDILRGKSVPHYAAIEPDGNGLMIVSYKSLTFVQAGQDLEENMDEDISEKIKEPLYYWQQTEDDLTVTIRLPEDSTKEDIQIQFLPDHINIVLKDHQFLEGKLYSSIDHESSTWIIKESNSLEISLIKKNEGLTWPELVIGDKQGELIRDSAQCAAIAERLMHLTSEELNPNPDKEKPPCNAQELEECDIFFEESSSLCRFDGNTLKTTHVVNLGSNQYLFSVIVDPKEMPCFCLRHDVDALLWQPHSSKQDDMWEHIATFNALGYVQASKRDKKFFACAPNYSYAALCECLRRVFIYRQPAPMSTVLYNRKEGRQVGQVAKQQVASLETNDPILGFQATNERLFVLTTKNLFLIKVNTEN
UniProt Q8WTT2: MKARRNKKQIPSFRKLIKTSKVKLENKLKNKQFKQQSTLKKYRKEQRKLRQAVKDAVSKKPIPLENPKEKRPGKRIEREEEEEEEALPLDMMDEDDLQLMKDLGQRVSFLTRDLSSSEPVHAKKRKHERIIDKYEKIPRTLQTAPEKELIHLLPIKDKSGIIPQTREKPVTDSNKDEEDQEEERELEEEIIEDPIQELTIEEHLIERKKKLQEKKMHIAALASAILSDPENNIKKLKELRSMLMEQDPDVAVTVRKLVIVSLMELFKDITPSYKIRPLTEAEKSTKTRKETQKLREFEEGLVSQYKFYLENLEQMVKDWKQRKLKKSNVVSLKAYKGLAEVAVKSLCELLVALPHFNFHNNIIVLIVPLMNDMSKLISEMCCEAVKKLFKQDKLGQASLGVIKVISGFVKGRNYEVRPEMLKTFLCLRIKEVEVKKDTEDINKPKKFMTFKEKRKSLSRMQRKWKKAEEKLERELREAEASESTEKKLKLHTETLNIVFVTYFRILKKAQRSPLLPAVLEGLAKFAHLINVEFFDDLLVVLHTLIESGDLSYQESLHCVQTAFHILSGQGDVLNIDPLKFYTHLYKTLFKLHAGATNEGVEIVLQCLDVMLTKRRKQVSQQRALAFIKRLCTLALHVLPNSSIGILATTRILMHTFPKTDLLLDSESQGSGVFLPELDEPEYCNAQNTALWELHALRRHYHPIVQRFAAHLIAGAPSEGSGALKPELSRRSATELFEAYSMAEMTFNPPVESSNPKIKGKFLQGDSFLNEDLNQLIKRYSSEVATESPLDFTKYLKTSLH
UniProt P50583: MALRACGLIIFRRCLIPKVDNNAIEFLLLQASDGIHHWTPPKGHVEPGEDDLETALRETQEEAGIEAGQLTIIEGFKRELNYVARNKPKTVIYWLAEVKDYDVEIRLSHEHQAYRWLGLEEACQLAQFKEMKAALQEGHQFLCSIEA
UniProt A8MXV4: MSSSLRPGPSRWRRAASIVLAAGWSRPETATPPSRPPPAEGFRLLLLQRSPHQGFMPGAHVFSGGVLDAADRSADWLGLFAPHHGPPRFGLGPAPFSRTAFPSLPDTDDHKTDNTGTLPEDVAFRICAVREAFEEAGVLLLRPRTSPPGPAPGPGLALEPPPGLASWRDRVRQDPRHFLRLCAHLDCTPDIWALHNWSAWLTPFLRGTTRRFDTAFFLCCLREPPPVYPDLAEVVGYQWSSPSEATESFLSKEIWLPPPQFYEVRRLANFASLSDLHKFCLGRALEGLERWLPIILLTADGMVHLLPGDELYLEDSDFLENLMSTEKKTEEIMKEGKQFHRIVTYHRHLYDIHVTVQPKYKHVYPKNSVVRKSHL
UniProt P49790, whole entry, looked up: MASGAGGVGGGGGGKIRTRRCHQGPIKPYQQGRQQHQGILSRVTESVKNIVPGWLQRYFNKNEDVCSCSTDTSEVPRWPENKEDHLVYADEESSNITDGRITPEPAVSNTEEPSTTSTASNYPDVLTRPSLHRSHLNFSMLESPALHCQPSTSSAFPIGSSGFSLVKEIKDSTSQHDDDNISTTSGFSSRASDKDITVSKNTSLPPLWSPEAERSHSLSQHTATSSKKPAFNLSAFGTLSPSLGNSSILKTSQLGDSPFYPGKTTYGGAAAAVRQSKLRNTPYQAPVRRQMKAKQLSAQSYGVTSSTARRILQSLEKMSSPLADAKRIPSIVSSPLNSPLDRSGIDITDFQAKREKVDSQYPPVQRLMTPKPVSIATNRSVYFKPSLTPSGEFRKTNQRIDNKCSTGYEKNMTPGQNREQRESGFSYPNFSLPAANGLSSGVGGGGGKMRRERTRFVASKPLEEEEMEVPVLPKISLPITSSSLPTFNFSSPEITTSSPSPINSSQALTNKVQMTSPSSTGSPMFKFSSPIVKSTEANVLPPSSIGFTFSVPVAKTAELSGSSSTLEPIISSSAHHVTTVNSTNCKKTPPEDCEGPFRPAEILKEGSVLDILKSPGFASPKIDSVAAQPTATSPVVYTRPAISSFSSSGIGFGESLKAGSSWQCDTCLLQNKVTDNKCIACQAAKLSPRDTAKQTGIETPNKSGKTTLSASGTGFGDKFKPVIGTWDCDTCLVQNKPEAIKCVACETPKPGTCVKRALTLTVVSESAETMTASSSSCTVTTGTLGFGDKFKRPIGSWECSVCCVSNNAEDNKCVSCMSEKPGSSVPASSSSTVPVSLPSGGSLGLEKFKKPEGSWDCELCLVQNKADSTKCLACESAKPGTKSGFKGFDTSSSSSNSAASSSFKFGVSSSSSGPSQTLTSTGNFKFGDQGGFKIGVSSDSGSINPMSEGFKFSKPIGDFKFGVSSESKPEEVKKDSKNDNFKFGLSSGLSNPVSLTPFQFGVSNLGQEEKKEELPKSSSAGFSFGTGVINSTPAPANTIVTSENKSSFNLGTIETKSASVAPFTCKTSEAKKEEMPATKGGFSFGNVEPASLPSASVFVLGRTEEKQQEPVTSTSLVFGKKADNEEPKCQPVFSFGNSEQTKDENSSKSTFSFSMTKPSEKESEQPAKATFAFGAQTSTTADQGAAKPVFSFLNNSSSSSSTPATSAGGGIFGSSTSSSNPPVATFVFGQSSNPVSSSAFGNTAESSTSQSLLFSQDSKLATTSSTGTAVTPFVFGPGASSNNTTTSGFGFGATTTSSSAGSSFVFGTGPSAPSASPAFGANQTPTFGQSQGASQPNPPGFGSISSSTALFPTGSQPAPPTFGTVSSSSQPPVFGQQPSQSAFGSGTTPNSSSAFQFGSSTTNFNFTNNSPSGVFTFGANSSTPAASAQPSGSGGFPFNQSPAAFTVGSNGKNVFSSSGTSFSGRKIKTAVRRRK
UniProt Q96DE0: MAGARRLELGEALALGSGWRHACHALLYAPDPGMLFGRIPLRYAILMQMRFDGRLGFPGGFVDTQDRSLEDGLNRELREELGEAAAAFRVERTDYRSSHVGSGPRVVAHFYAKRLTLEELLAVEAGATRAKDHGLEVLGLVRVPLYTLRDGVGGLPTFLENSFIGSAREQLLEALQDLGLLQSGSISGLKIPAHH
UniProt Q86WQ0: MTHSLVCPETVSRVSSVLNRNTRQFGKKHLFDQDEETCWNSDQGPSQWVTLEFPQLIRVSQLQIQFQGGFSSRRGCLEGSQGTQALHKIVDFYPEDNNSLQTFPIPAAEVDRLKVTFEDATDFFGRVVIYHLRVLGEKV
UniProt O15118: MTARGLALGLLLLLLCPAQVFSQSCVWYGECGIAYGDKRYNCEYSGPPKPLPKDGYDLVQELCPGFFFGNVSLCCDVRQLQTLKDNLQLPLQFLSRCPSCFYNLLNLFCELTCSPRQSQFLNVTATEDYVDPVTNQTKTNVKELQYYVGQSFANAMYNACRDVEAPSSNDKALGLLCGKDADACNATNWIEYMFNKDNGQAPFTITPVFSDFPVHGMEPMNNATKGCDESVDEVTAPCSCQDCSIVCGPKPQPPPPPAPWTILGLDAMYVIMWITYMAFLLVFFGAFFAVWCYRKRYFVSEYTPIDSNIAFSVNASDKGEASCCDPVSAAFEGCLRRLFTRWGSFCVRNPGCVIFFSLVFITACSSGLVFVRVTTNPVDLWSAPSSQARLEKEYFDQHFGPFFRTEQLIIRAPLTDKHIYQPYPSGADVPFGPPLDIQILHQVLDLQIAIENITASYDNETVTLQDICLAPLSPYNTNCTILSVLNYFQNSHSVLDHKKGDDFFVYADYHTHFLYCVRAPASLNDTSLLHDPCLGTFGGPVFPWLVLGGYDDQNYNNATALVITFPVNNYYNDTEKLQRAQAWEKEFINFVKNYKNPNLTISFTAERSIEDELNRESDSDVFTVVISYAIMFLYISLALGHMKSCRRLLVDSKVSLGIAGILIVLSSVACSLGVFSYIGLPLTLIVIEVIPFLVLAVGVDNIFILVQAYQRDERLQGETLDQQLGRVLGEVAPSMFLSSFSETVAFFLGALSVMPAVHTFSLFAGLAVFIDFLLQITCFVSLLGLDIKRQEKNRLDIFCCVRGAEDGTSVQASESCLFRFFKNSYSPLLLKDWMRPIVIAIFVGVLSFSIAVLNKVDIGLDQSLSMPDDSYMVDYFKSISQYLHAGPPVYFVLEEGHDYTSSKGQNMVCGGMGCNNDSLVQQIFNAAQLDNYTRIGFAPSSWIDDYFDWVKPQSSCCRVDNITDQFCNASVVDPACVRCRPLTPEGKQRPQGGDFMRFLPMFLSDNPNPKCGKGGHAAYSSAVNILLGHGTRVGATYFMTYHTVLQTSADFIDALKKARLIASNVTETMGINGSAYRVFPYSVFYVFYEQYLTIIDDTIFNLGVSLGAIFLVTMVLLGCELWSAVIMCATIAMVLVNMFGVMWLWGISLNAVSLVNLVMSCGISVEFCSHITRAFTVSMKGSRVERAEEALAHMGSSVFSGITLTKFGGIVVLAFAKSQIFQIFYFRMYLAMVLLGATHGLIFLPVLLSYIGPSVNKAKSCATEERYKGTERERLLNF
UniProt Q9Y3C1: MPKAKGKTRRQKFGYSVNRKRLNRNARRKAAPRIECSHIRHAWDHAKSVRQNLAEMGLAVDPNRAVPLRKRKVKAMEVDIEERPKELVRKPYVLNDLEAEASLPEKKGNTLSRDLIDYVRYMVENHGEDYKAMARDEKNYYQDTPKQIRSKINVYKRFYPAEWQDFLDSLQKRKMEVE
UniProt P61916: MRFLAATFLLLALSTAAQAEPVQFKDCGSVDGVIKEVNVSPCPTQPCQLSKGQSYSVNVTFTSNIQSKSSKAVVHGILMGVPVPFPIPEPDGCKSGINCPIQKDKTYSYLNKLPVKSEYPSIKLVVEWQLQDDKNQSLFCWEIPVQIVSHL
UniProt P16083: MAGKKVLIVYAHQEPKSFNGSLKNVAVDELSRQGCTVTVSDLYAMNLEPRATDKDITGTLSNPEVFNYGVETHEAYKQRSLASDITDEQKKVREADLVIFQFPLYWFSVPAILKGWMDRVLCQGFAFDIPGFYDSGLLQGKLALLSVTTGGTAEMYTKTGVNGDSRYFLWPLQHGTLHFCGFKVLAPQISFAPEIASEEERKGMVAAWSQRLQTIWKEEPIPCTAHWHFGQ
UniProt Q13287: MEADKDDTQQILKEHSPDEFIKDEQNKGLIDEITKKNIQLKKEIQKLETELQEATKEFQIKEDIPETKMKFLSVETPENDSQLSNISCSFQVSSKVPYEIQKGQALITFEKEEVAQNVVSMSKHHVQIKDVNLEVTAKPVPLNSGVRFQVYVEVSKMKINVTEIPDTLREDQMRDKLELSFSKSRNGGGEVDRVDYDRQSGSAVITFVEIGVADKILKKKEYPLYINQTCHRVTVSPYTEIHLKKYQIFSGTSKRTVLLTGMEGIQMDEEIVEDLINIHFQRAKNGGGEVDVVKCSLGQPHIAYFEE

How the values were obtained:
Experiment in all cases: log2 fold change, soluble protein after heating vs DMSO (PISA); higher = thermal stabilisation; K562 lysate, 10 uM; active = over 0.2 and 3.5 SD of the protein, either way, in both replicates (recomputed)
nilotinib = compound: Cc1cn(-c2cc(NC(=O)c3ccc(C)c(Nc4nccc(-c5cccnc5)n4)c3)cc(C(F)(F)F)c2)cn1 [nilotinib]
Summary of the method: (§1)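 A 30 min treatment with 10 μM compound was applied to crude K562 extract at 1 mg/mL protein in PBS pH 7.4 with 1 mM MgCl2. Heating for 3 min spanned 48°C-58°C, after which aliquots were pooled, adjusted to 0.5% NP-40 at 4°C and spun at 21,000xg for 90 min. TMTpro 16plex LC-MS/MS of the supernatant, with channel sums equalised, gave values recorded as log-two fold change in thermal stability against solvent controls, from duplicates.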

[1] = compound: Cc1nc(Nc2n[nH]c3c2CN(C(=O)N[C@H](CN(C)C)c2ccccc2)C3(C)C)c2sccc2n1
Summary of the method: as §1

dasatinib = compound: Cc1nc(Nc2ncc(C(=O)Nc3c(C)cccc3Cl)s2)cc(N2CCN(CCO)CC2)n1 [dasatinib]
Summary of the method: as §1

[2] = compound: Cc1ncc(-c2ccnc(Nc3ccc(S(C)(=O)=O)cc3)n2)n1C(C)C
Summary of the method: as §1

[3] = compound: Cn1cc(-c2ccc3c(c2)CCN3C(=O)Cc2cccc(C(F)(F)F)c2)c2c(N)ncnc21
Summary of the method: as §1

quisinostat = compound: Cn1cc(CNCC2CCN(c3ncc(C(=O)NO)cn3)CC2)c2ccccc21 [quisinostat]
Summary of the method: as §1

tipifarnib = compound: Cn1cncc1[C@@](N)(c1ccc(Cl)cc1)c1ccc2c(c1)c(-c1cccc(Cl)c1)cc(=O)n2C [tipifarnib]
Summary of the method: as §1

[4] = compound: NC(=O)Nc1cc(-c2cccc(F)c2)sc1C(=O)N[C@H]1CCCNC1
Summary of the method: as §1

[5] = compound: NC(=O)c1cnc(N[C@@H]2CCCC[C@@H]2N)nc1Nc1cccc(-n2nccn2)c1
Summary of the method: as §1

[6] = compound: NC1(c2ccc(-c3nc4ccn5c(=O)[nH]nc5c4cc3-c3ccccc3)cc2)CCC1
Summary of the method: as §1

Measured: log2 fold change

NOCT (UniProt Q9UK39)
inactive: nilotinib -0.045 | [1] 0.011 | dasatinib 0.013 | [2] -0.084 | [3] 0.017 | quisinostat 0 | tipifarnib 0.061 | [4] 0.043 | [5] 0.004 | [6] -0.014

NOP53 (UniProt Q9NZM5)
inactive: nilotinib -0.019 | [1] 0.028 | dasatinib -0.015 | [2] -0.065 | [3] 0.1 | quisinostat 0.035 | tipifarnib -0.226 | [4] -0.006 | [5] 0.003 | [6] -0.007

NUDCD1 (UniProt Q96RS6)
inactive: nilotinib 0.01 | [1] -0.007 | dasatinib -0.015 | [2] 0.029 | [3] 0 | quisinostat -0.026 | tipifarnib -0.011 | [4] 0.026 | [5] -0.005 | [6] 0.018

NOC3L (UniProt Q8WTT2)
inactive: nilotinib -0.002 | [1] -0.09 | dasatinib -0.022 | [2] -0.024 | [3] 0.016 | quisinostat -0.094 | tipifarnib 0.107 | [4] 0.034 | [5] 0.027 | [6] -0.048

NUDT2 (UniProt P50583)
inactive: nilotinib 0.017 | [1] 0.014 | dasatinib -0.053 | [2] 0.046 | [3] 0.013 | quisinostat -0.026 | tipifarnib 0.048 | [4] -0.012 | [5] 0.007 | [6] 0.011

NUDT19 (UniProt A8MXV4)
inactive: nilotinib -0.003 | [1] -0.029 | dasatinib -0.025 | [2] -0.028 | [3] 0.005 | quisinostat -0.016 | tipifarnib 0.022 | [4] -0.012 | [5] 0 | [6] 0.015

NUP153 (UniProt P49790)
inactive: nilotinib -0.01 | [1] 0.014 | dasatinib -0.005 | [2] 0.029 | [3] 0.009 | quisinostat 0.013 | tipifarnib -0.023 | [4] -0.016 | [5] 0.007 | [6] 0.025

Random excerpt: two records from the list.
NUP153 (UniProt P49790)
inactive: nilotinib -0.01 | [1] 0.014 | dasatinib -0.005 | [2] 0.029 | [3] 0.009 | quisinostat 0.013 | tipifarnib -0.023 | [4] -0.016 | [5] 0.007 | [6] 0.025

NUDT19 (UniProt A8MXV4)
inactive: nilotinib -0.003 | [1] -0.029 | dasatinib -0.025 | [2] -0.028 | [3] 0.005 | quisinostat -0.016 | tipifarnib 0.022 | [4] -0.012 | [5] 0 | [6] 0.015

(list continues)

NUDT16 (UniProt Q96DE0)
inactive: nilotinib -0.005 | [1] -0.006 | dasatinib 0.026 | [2] 0.035 | [3] 0.009 | quisinostat -0.011 | tipifarnib -0.01 | [4] -0.005 | [5] -0.005 | [6] -0.008

NR2C2AP isoform 2 (UniProt Q86WQ0)
inactive: nilotinib -0.007 | [1] -0.007 | dasatinib -0.041 | [2] -0.032 | [3] -0.002 | quisinostat 0.033 | tipifarnib 0.07 | [4] -0.01 | [5] -0.008 | [6] 0.054

NPC1 (UniProt O15118)
inactive: nilotinib -0.007 | [1] -0.005 | dasatinib 0.01 | [2] -0.003 | [3] 0.02 | quisinostat -0.077 | tipifarnib 0.002 | [4] -0.002 | [5] 0.008 | [6] -0.004

NOP16 (UniProt Q9Y3C1)
inactive: nilotinib -0.009 | [1] 0.014 | dasatinib 0.019 | [2] 0.026 | [3] -0.041 | quisinostat 0.003 | tipifarnib 0.009 | [4] 0.011 | [5] 0.003 | [6] 0.04

NPC2 (UniProt P61916)
inactive: nilotinib -0.074 | [1] 0.019 | dasatinib -0.059 | [2] 0.051 | [3] 0.012 | quisinostat -0.235 | tipifarnib -0.015 | [4] 0.031 | [5] -0.007 | [6] -0.016

NQO2 (UniProt P16083)
inactive: nilotinib 0.01 | [1] 0 | dasatinib 0.048 | [2] 0.006 | [3] -0.01 | quisinostat 0.064 | tipifarnib 0.014 | [4] -0.037 | [5] -0.012 | [6] -0.001

NT5C3A (UniProt Q9H0P0)
inactive: nilotinib -0.038 | [1] 0.05 | dasatinib -0.01 | [2] 0 | [3] -0.021 | quisinostat 0.045 | tipifarnib 0.01 | [4] 0.018 | [5] 0.07 | [6] 0.018

NMI (UniProt Q13287)
inactive: nilotinib -0.008 | [1] -0.013 | dasatinib -0.012 | [2] -0.001 | [3] 0.002 | quisinostat 0.017 | tipifarnib 0.012 | [4] -0.006 | [5] 0.013 | [6] -0.008
